{
  "sequences": {"note": "Sequences of proteins named here, by UniProt entry; tags and fusion partners are left off. A change or cut given only in a name is not applied to a line headed by its entry. A line that says so, or that is headed by a name, gives the form on record, which may keep a tag or linker.", "UniProt Q9UKA4": "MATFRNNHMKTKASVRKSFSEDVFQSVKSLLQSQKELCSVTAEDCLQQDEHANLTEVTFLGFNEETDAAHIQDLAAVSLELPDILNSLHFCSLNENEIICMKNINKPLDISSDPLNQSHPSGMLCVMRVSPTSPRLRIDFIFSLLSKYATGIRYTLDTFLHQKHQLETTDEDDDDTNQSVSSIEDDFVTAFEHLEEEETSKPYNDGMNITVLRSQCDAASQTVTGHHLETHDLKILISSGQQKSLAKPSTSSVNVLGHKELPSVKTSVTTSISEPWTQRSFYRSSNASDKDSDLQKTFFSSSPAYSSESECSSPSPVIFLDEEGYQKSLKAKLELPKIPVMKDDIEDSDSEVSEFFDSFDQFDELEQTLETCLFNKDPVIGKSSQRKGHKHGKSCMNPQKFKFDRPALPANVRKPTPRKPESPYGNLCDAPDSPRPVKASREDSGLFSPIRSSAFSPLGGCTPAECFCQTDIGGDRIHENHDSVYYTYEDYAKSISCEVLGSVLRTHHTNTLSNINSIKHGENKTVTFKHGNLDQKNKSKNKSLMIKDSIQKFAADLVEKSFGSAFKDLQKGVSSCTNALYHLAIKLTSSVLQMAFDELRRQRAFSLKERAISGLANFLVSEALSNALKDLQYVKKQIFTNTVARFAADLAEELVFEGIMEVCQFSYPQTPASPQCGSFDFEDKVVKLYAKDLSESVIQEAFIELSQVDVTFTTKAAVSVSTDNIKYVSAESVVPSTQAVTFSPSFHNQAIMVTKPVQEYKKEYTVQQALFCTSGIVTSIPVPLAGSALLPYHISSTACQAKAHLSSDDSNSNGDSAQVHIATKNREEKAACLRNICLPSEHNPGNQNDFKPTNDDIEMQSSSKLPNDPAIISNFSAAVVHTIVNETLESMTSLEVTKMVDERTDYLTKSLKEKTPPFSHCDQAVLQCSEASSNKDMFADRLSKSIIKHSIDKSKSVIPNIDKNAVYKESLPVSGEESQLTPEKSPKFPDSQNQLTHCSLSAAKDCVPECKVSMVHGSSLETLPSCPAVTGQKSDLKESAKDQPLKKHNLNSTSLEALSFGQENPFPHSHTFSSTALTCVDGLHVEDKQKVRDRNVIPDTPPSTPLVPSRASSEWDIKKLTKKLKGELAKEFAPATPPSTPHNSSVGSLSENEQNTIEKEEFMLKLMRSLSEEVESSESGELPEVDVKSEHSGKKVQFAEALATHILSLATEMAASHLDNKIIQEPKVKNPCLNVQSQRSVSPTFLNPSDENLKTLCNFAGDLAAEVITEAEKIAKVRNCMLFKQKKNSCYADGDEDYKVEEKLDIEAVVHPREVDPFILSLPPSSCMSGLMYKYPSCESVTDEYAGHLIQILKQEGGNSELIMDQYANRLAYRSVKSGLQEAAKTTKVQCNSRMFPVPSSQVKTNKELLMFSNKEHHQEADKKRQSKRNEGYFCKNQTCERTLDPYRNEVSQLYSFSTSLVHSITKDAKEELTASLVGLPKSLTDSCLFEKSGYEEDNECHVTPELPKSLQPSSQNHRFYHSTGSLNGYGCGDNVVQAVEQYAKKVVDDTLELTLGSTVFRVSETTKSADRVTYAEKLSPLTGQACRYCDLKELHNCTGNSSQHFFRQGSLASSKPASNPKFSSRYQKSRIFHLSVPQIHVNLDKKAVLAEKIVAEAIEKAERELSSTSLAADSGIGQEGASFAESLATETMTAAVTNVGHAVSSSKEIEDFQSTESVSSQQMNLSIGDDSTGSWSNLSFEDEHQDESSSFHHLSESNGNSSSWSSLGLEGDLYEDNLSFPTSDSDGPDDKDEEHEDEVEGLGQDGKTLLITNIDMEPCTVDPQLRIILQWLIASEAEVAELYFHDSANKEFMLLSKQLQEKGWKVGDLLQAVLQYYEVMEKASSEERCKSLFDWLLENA", "HA-tagged AKAP11 4ALIR mutant (WSNL > AAAA) (Q9UKA4, form named)": "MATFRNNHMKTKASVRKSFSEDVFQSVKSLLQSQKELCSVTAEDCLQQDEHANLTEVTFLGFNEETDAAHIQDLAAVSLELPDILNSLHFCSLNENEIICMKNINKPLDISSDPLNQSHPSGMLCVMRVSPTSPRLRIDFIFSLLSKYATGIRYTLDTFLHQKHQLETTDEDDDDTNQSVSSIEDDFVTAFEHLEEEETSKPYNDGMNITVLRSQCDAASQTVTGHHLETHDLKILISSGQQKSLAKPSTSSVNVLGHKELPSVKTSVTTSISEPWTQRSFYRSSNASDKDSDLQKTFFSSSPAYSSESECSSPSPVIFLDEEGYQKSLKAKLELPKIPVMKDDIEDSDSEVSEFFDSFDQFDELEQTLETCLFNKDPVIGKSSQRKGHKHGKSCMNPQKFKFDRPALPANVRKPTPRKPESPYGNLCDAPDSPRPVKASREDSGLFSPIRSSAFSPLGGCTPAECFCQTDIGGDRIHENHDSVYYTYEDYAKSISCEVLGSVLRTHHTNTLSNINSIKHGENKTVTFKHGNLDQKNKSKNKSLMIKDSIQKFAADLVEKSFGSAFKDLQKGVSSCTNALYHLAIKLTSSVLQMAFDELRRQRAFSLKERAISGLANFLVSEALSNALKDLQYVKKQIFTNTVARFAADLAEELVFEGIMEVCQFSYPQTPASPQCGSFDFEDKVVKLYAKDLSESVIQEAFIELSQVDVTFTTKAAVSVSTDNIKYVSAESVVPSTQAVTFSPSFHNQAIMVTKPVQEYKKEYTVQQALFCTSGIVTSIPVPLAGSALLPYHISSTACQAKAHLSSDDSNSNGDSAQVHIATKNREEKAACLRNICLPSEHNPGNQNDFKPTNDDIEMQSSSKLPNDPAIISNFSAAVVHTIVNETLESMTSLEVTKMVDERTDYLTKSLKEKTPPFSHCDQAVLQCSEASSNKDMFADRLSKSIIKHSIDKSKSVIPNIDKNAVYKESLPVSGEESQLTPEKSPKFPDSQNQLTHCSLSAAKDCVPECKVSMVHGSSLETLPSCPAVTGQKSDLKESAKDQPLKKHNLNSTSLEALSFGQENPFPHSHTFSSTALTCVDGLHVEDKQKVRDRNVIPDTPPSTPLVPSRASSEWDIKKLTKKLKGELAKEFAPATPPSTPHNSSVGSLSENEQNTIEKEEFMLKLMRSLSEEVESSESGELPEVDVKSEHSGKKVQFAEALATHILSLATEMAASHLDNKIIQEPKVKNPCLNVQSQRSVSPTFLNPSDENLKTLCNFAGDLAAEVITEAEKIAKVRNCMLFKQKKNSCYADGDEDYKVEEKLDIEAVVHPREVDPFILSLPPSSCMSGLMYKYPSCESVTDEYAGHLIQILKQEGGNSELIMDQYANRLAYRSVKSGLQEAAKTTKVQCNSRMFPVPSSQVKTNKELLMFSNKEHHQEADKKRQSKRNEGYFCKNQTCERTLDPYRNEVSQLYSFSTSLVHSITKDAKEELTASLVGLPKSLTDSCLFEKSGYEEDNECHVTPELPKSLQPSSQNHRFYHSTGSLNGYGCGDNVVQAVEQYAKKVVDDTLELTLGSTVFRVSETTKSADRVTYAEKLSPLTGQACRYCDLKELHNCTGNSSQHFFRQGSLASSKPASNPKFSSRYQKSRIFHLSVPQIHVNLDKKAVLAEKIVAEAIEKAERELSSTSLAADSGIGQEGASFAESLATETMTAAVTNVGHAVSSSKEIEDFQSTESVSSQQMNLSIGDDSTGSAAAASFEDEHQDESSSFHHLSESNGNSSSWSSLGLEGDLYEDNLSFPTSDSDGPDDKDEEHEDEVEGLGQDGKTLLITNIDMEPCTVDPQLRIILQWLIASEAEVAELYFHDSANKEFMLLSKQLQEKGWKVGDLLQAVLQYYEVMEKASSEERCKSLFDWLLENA", "UniProt P10644": "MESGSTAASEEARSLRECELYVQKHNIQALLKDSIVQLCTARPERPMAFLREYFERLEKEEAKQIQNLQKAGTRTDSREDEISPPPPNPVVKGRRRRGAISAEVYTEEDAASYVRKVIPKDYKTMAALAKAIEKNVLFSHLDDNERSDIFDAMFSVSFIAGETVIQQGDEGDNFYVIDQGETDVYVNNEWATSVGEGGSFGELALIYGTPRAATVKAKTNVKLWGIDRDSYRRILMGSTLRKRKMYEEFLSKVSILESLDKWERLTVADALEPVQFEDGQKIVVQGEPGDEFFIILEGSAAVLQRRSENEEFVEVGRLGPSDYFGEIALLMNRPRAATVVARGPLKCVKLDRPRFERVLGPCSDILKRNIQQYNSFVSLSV"},
  "source": "paper PMC12130464",
  "key": {"[1]": {"biological_target": "HA-tagged AKAP11 4ALIR mutant (WSNL > AAAA) (human) (UniProt Q9UKA4)", "assay": "co-IP; HA immunoprecipitation (anti-HA magnetic beads, 1 h, 4 °C) from HEK293T transiently transfected with HA-AKAP11 constructs; complete media (10% FBS DMEM); increasing forskolin for 20 min; blots for endogenous RIα and Cα"}, "[2]": {"biological_target": "HA-tagged AKAP11, wild type (human) (UniProt Q9UKA4)", "assay": "co-IP; HA immunoprecipitation (anti-HA magnetic beads, 1 h, 4 °C) from HEK293T transiently transfected with HA-AKAP11 constructs; complete media (10% FBS DMEM); increasing forskolin for 20 min; blots for endogenous RIα and Cα"}},
  "note": "These are yes or no findings as the source states them, for the method shown. In cells and extracts the contact can be indirect. Some results given as binding are weak or reduced against the parent protein; the word gives no strength.",
  "data": [
    {"substance": "endogenous PKA regulatory subunit RIα (from UniProt P10644 1-381)", "values": [
      {"measurement": "binding", "setting": "[1]", "value": "binds"},
      {"measurement": "binding", "setting": "[2]", "value": "binds"}
    ]}
  ]
}
